Results taken from publication PMC3808375, “Reduction of Decoy Receptor 3 Enhances TRAIL-Mediated Apoptosis in Pancreatic Cancer” (PLoS ONE, 2013).
No constants are given. Whether binding was seen depends on the method and setting. For some of these results: In cells and extracts the contact can be indirect. Some entries that bind do so weakly or less than the wild type.

Sequences of proteins named here, by UniProt entry; tags and fusion partners are left off. A change or cut given only in a name is not applied to a line headed by its entry.
UniProt P48023: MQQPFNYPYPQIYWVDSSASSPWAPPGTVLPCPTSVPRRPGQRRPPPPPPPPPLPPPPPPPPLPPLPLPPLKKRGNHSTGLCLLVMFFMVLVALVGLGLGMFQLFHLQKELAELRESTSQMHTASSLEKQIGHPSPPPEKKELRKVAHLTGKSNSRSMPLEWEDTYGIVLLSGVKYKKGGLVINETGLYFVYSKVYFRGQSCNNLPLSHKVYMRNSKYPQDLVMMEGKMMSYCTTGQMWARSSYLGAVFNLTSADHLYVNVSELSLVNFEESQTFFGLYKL

Experiments:
[1] = biological target: T1, recombinant human DcR3 (decoy receptor 3) (human) (UniProt O95407); assay: ELISA; wells coated with DcR3 (2 µg/ml); recombinant FasL or TRAIL (1 µg/ml) added with or without free DcR3 (20-50 µg/ml); detected with biotinylated anti-FasL or anti-TRAIL; both purified
T1 sequence: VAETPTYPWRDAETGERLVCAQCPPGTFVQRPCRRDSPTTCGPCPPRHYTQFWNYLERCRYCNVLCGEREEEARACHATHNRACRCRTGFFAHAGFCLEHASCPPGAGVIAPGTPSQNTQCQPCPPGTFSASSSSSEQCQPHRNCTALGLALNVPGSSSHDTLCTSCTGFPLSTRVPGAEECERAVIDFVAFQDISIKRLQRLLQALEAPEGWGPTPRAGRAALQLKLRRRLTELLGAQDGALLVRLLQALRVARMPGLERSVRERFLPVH

[2] = biological target: T2, endogenous DcR3 of AsPC-1 cells (human (endogenous in AsPC-1)), O95407; assay: co-IP; AsPC-1 cell lysate precipitated with anti-DcR3 or anti-TRAIL at 4°C overnight, protein A beads; blot with biotinylated anti-TRAIL or anti-DcR3; FasL as positive control; conditions: remark: other sources report otherwise
T2 chain: T1 sequence

[3] = biological target: T3, membrane-bound TRAIL of pancreatic cancer cells (human (endogenous in AsPC-1 and MiaPaCa-2)), P50591; assay: Western blotting of a complex band in tumor lysate; lysate (30 µg/sample) of AsPC-1 tumors from nude mice, stained with anti-TRAIL and anti-DcR3; two bands each; conditions: remark: other sources report otherwise
T3 chain: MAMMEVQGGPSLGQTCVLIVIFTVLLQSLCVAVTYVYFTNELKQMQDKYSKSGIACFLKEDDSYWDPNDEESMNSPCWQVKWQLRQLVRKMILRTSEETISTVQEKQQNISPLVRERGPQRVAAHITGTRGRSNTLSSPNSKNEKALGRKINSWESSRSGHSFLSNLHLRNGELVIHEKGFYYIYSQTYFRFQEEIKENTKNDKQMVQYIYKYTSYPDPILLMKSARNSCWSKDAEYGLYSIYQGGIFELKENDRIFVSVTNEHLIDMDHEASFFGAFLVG

[4] = biological target: T3, membrane-bound TRAIL of pancreatic …; assay: co-IP; AsPC-1 cell lysate precipitated with anti-DcR3 or anti-TRAIL at 4°C overnight, protein A beads; blot with biotinylated anti-TRAIL or anti-DcR3; FasL as positive control; conditions: remark: other sources report otherwise
recombinant FasL [5] = biological target: recombinant FasL (UniProt P48023); assay: co-IP; 100 µl mixture of pure recombinant DcR3 and TRAIL (1 µg/ml) precipitated with anti-DcR3 or anti-TRAIL and protein A beads; eluted with non-denatured Laemmli buffer; blot with biotinylated anti-TRAIL or anti-DcR3; FasL as positive control; both purified
recombinant FasL [6] = biological target: recombinant FasL (UniProt P48023); assay: ELISA; wells coated with recombinant FasL or TRAIL (1 µg/ml); recombinant DcR3 (1 µg/ml) added with or without free TRAIL or FasL (10-20 µg/ml), 4°C overnight; detected with biotinylated DcR3 antibody; both purified
[7] = biological target: endogenous FasL of AsPC-1 cells (human (endogenous in AsPC-1)) (UniProt P48023); assay: co-IP; AsPC-1 culture media precipitated with anti-DcR3 or anti-TRAIL at 4°C overnight, protein A beads; blot with biotinylated anti-TRAIL or anti-DcR3; FasL as positive control
[8] = biological target: endogenous FasL of AsPC-1 cells (human (endogenous in AsPC-1)) (UniProt P48023); assay: co-IP; AsPC-1 cell lysate precipitated with anti-DcR3 or anti-TRAIL at 4°C overnight, protein A beads; blot with biotinylated anti-TRAIL or anti-DcR3; FasL as positive control
[9] = biological target: T3, membrane-bound TRAIL of pancreatic …; assay: flow cytometry on cells; AsPC-1 cells incubated with recombinant DcR3 (5 µg/ml) with or without TRAIL (5 µg/ml) or anti-TRAIL monoclonal antibody (1 µg/ml), 1 hour at 4°C; bound DcR3 detected with biotinylated anti-DcR3 and FITC-streptavidin; only the binder purified; conditions: remark: other sources report otherwise
[10] = biological target: T3, membrane-bound TRAIL of pancreatic …; assay: flow cytometry on cells; AsPC-1 (gemcitabine 0-1000 nM) or MiaPaCa-2 (0-100 nM) cells; recombinant DcR3 added to block the access of anti-TRAIL; exposed TRAIL stained with anti-TRAIL; only the binder purified; conditions: remark: other sources report otherwise

Molecule: recombinant FasL (from UniProt P48023 130-281) (ligand)
- binding [1]: binds

B1: membrane-bound TRAIL of pancreatic cancer cells, P50591 1-281 (ligand)
chain: T3 chain
- binding [2]: binds

B2: endogenous DcR3 of AsPC-1 cells, O95407 30-300 (receptor)
chain: T1 sequence
- binding [3]: binds
- binding [4]: binds

B3: recombinant human DcR3 (decoy receptor 3) (receptor, UniProt O95407 30-300)
chain: T1 sequence
- binding (recombinant FasL [5]): binds
- binding (recombinant FasL [6]): binds

B4: endogenous DcR3 of AsPC-1 cells (receptor, UniProt O95407 30-300)
chain: T1 sequence
- binding [7]: binds
- binding [8]: binds

B5: recombinant human DcR3 (decoy receptor 3), O95407 30-300 (receptor)
chain: T1 sequence
- binding [9]: binds
- binding [10]: binds
